Hit rate of the full screen: of about 360,000 compounds, about 7,500 (2.1%) were called active. This list was built around the results that the source calls inconclusive (neither active nor inactive); the mix of calls is not that of the screen. Calls follow the shape of the dose curve; as a rule, active = well fitted inhibition curve with a large enough effect; inconclusive = small, poorly fitted or top-dose-only effect, or effect the other way; inactive = flat fitted curve, though single readings scatter. A potency beside an inconclusive call is a rough fit, not a confirmed value.
Test: Nrf2 qHTS screen for inhibitors; also: nearly all actives have a fitted effect of over 60% in size
Conditions: A549 ARE-Fluc reporter, luciferase luminescence, 18-24 h; series mostly up to 46 µM
Method in brief: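 A549 ARE_Fluc cells (5000/well, 5% FBS OPTI-MEM) pre-incubated 2 h, then treated with compounds 18-24 h at 37C/5% CO2 in concentration-response. CellTiter-Fluor viability read first; BugLite luciferase luminescence after 15 min at room temperature gives Nrf2 activity.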
Potency is read from the fitted curve at half-maximal effect.

| Compound | Potency |
| --- | --- |
| CCOC(=O)N1CCC(N(C(=O)Nc2ccc(Cl)c(Cl)c2)C(C)CC)CC1 (configuration not stated) | active: 14.6 µM |
| CN(C)c1ccc(NS(=O)(=O)c2ccc(-c3csnn3)cc2)cc1 | inconclusive: 29.1 µM [activator, single point] |
| COc1ccc([C@H]2CC(=O)C=C(c3ccc(F)cc3OCc3ccccc3)C2)cc1 | inconclusive: 18.4 µM [falling, partial curve, poor fit] |
| COc1ccccc1NS(=O)(=O)c1cccc(C(=O)N(C)Cc2cccs2)c1 | inconclusive: 0.092 µM [falling, full curve, poor fit] |
| CC(NC(=O)/C(C#N)=C/c1ccc(Cl)c([N+](=O)[O-])c1)c1ccccc1 (configuration not stated) | inactive |
| O=c1c2sc3ccccc3c2n(Cc2cccc(C(F)(F)F)c2)c(=O)n1-c1ccccc1 | inactive |
| C=CCn1c(COc2ccccc2F)nnc1SCC(=O)Nc1cc2oc3ccccc3c2cc1OC | inconclusive: 32.6 µM [falling, single point] |
| O=C(NCc1cccnc1)c1ccc(-c2cc3ccccc3oc2=O)cc1 | inconclusive: 18.4 µM [falling, partial curve] |
| N=C1SCC(=O)N1c1ncc(Cc2cccc(Cl)c2)s1 | inconclusive: 29.1 µM [falling, single point] |
| O=C(O)c1ccccc1NS(=O)(=O)c1ccc(NNC(=S)Nc2ccc(OC(F)F)cc2)c([N+](=O)[O-])c1 | inconclusive: 29.1 µM [falling, single point] |
| Cc1ccc2nc(-c3ccc(NC(=O)COC(=O)c4ccc(=O)[nH]c4)cc3)sc2c1 | inconclusive: 0.58 µM [activator, full curve, poor fit] |
| FC(F)(F)c1cccc(N2CCN(c3nc4ccccc4n4cnnc34)CC2)c1 | inconclusive: 20.6 µM [falling, partial curve, poor fit] |
| CCOc1ccccc1CNc1nc2ccccc2n1C | inconclusive: 23.1 µM [falling, single point] |
| COc1ccc(C(=O)C[n+]2ccc(N)c(C)c2C)cc1 | active: 5.8 µM |
| Cc1ccc(NC(=O)CSc2nnc(-c3cc4occc4n3C)n2-c2ccccc2C)c(C)c1 | inconclusive: 29.1 µM [falling, single point] |
| COc1ccc(CN(C)CC(=O)Nc2cccc(S(=O)(=O)N3CCCC3)c2)cc1F | inconclusive: 18.4 µM [falling, single point] |
| CCc1ccc(N2CC(C(=O)NCc3ccc4c(c3)OCO4)CC2=O)cc1 (configuration not stated) | inactive |
| O=C(Nc1ccccc1Cl)c1ccc2nsnc2c1 | inconclusive: 13 µM [activator, partial curve] |
| Cc1nnc(N/N=C/c2ccccn2)[nH]c1=O | inconclusive: 1.3 µM [falling, full curve] |
| O=C(Nc1ccccn1)c1ccc(Cl)c(S(=O)(=O)N2CCc3ccccc32)c1 | active: 20.6 µM |
| CN(C(=O)c1ccccc1)c1nc2ccccc2s1 | inconclusive: 4.61 µM [activator, full curve] |

3 entries from above, set out differently.
Compound	Potency
CCc1ccc(N2CC(C(=O)NCc3ccc4c(c3)OCO4)CC2=O)cc1 (configuration not stated)	inactive
O=C(Nc1ccccc1Cl)c1ccc2nsnc2c1	inconclusive: 13 µM [activator, partial curve]
Cc1nnc(N/N=C/c2ccccn2)[nH]c1=O	inconclusive: 1.3 µM [falling, full curve]

Following part:

| Compound | Potency |
| --- | --- |
| Cc1ccc(C(=O)N2CCN(c3cccc(Cl)c3)CC2)cc1-n1c(C)nc2cccnc21 | inactive |
| Cc1cc(C)c(N(C(=O)Cn2nnc3ccccc32)C(C(=O)NC(C)(C)C)c2ccsc2)c(C)c1 (configuration not stated) | inconclusive: 0.259 µM [falling, full curve, poor fit] |
| COC(=O)CC1C(=O)NCCN1C(=S)Nc1cccc(C(F)(F)F)c1 (configuration not stated) | inconclusive: 2.31 µM [falling, full curve] |
| CCN1CCN(C(CNS(=O)(=O)c2ccc(C)cc2)c2cccnc2)CC1 (configuration not stated) | inconclusive: 16.4 µM [activator, partial curve, poor fit] |
| CCOc1ccc(C(=O)NCC(=O)OCc2cc(C(C)=O)ccc2OC)cc1 | inconclusive: 8.2 µM [activator, partial curve, poor fit] |
| Fc1ccc(N2CCN(Cc3cnc(Oc4ccc(Br)cc4)s3)CC2)cc1 | inconclusive: 32.6 µM [falling, single point] |
| COc1cc(Cl)c(C)cc1NC(=O)C1CCCN(c2ncnc3onc(-c4ccc(F)cc4)c23)C1 (configuration not stated) | inactive |
| O=C(Nc1cccc(-n2cnnn2)c1)c1ccc(C(F)(F)F)cc1 | inconclusive: 20.6 µM [falling, single point] |
| CC1CN(C(=O)COc2ccc3ccccc3c2Br)CC(C)O1 (configuration not stated) | inconclusive: 23.1 µM [falling, partial curve, poor fit] |
| CCOc1ccc(C(=O)NCC(=O)N2CC=C(c3ccccc3)CC2)cc1OCC | inconclusive: 20.6 µM [falling, partial curve, poor fit] |
| CN(Cc1ccccc1)S(=O)(=O)c1ccccc1[N+](=O)[O-] | inconclusive: 2.91 µM [activator, partial curve, poor fit] |
| COc1ccc(S(=O)(=O)c2cc3cc(C(C)(C)C)cc(O)c3oc2=O)cc1 | inconclusive: 2.31 µM [activator, partial curve, poor fit] |
| O=C(Nc1ccc(S(=O)(=O)N2CCCC2)cc1)c1ccc(OCC2CCCO2)cc1 (configuration not stated) | inconclusive: 23.1 µM [falling, single point] |
| CCOCCn1c(N(C)Cc2ccccc2)nc2c1c(=O)[nH]c(=O)n2C | inconclusive: 14.6 µM [falling, partial curve, poor fit] |
| O=C(CSc1nnc(Cc2cccs2)n1Cc1ccco1)Nc1cc(Cl)cc(Cl)c1 | inconclusive: 11.6 µM [falling, partial curve] |
| CN1CCN(C(c2ccc(Br)cc2)c2cc(Cl)c3cccnc3c2O)CC1 (configuration not stated) | inconclusive: 29.1 µM [falling, single point] |
| CN(C)c1ccc(/C=C/c2nc3ccccc3c(=O)n2-c2ccc(C(=O)O)cc2)cc1 | inconclusive: 5.17 µM [falling, partial curve, poor fit] |
| COc1ccc(N2C(=S)NC3N2C(=S)NC3(C)c2ccccc2)cc1 (configuration not stated) | inconclusive: 16.4 µM [activator, partial curve, poor fit] |
| COCCSc1ccccc1C(=O)Nc1ccc2c(c1)OCCO2 | inconclusive: 13 µM [activator, partial curve, poor fit] |
| CC1(C)Cc2cccc(OCC(=O)Nc3ccccc3F)c2O1 | inactive |
| NC(=O)C1CCN(c2ccc(S(=O)(=O)N3CCC(Cc4ccccc4)CC3)cn2)CC1 | active: 1.64 µM |

| Compound | Potency |
| --- | --- |
| COc1cccc2cc(C(=O)NCCc3ccccc3)oc12 | inconclusive: 1.46 µM [activator, full curve] |
| O=C(Cc1cccs1)N/N=C/C=C\c1ccccc1[N+](=O)[O-] | inconclusive: 2.59 µM [activator, full curve] |
| O=C1c2ccccc2-c2onc3ccc(Oc4ccccc4)c1c23 | inconclusive: 16.4 µM [falling, single point] |
| Cn1c2c(c(=O)n(C)c1=O)C(c1ccccc1C(F)(F)F)CC(=O)N2 (configuration not stated) | inconclusive: 23.1 µM [falling, single point] |
| COC(=O)c1cc(OC)c(OC)cc1NC(=O)Cn1nnc(-c2ccccc2Cl)n1 | inconclusive: 18.4 µM [falling, partial curve, poor fit] |
| CCOC(=O)N1CCC(N2Cc3cccc(C(=O)N4CCN(c5cccc(C)c5C)CC4)c3C2=O)CC1 | inconclusive: 29.1 µM [falling, single point] |
| NS(=O)(=O)c1ccc(N/N=C/c2cn(-c3ccccc3)nc2-c2ccccc2)c([N+](=O)[O-])c1 | active: 23.1 µM |
| Cc1cc(-c2cccs2)c2c(n1)sc1c(=O)[nH]c(=O)[nH]c12 | inconclusive: 29.1 µM [falling, single point] |
| CCCn1c(C(O)c2ccc3c(c2)OCO3)nc2ccccc21 (configuration not stated) | inconclusive: 29.1 µM [falling, single point] |
| COC(=O)CSc1ncc2c(n1)-c1ccccc1N(Cc1cccc(F)c1)S2(=O)=O | inconclusive: 8.2 µM [activator, partial curve, poor fit] |
| CCCOC(=O)c1ccc(-c2ccc(C=O)o2)cc1 | inconclusive: 1.64 µM [activator, full curve] |
| COc1cccc(CNC(=O)c2c(C)oc3nc(C)nc(N4CCOCC4)c23)c1 | inconclusive: 16.4 µM [activator, single point] |
| C#CCN1C=CC(=O)[C@@H](OC(=O)Nc2ccc(C)cc2)[C@H]1c1ccccc1Br | inconclusive: 20.6 µM [falling, partial curve, poor fit] |
| Cc1ccc(OCc2nnc(SCc3cc(=O)[nH]c4ccccc34)o2)cc1 | inconclusive: 14.6 µM [falling, partial curve, poor fit] |
| O=C(CC1SC(=O)N(c2ccccc2)C1=O)Nc1cccc2ccccc12 (configuration not stated) | inconclusive: 16.4 µM [activator, partial curve, poor fit] |
| CN(C(=O)CSc1nc(-c2ccc(C(C)(C)C)cc2)c(C#N)c(=O)[nH]1)C1CCCCC1 | inactive |
| Cc1ccc(C(=O)CNc2ccc(C)c(Cl)c2)cc1 | inconclusive: 9.2 µM [activator, partial curve] |
| COc1ccc(-c2csc(NC(=O)C3COc4ccccc4O3)n2)cc1OC (configuration not stated) | inconclusive: 18.4 µM [falling, partial curve, poor fit] |
| Cc1ccc(-n2ncc3c(NCc4cccnc4)ncnc32)cc1C | inconclusive: 2.59 µM [activator, full curve] |
| CCNC(=S)N1CCN(c2nc(-c3cccc(OC)c3)cs2)CC1 | inconclusive: 16.4 µM [falling, single point] |

Source: PubChem BioAssay AID504444 (National Center for Advancing Translational Sciences (NCATS), 2011)
